Library screen at single concentrations

By UniProt entry, the sequences of proteins in these tests, tags left out.
UniProt P9WPC5, whole entry: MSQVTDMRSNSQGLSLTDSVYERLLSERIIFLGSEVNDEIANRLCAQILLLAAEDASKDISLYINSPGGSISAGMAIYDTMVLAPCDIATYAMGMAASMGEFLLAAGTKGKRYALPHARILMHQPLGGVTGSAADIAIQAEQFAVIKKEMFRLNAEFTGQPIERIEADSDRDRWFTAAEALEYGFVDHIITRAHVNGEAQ
UniProt P9WPC3, whole entry partner: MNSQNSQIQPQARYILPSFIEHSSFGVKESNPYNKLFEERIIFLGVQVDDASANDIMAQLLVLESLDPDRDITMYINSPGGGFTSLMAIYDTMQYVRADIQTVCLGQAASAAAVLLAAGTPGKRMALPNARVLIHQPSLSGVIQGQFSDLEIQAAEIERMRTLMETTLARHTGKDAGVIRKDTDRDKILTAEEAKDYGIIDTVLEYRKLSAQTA
UniProt P9WFT3, whole entry: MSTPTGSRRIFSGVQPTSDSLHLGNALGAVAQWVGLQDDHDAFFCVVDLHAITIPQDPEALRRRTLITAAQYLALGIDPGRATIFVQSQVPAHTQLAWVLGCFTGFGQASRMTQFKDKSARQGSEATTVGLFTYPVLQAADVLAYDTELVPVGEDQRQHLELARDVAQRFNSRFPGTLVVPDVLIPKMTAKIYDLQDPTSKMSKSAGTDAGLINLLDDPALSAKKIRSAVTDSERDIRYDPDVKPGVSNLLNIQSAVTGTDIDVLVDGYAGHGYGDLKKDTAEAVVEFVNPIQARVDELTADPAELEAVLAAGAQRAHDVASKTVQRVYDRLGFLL

ClpP1P2: 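ClpP1P2, Mycobacterium tuberculosis (UniProt P9WPC5 and UniProt P9WPC3). Protease assay of ClpP1P2, read by the AMC dye that it sets free. Concentration: 50 µM. Higher reads as stronger inhibition, judged from the few compounds that gave an IC50. Most other retested compounds had strongly negative values. Size under these conditions: about 69,000 compounds, about 10 of them at 50% or above in at least one test.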
MtTrpRS: 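Enzyme assay of tryptophanyl-tRNA synthetase; the read-out is not stated. Target: Tryptophan-tRNA ligase, Mycobacterium tuberculosis (UniProt P9WFT3). Tested at 10 µM. Higher most likely means stronger inhibition; the record gives no direction and few retests gave an IC50. Of about 65,000 compounds tested this way, about 64 (0.098%) reached 50% or more in at least one test.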

The filed quantity is “Percent Effect” (%).
The controls that fix the scale are not given in the record; negative values are as filed.
Compounds were drawn at random from those tested, without regard to their results.
A dash means the value is not listed here; it may have been measured.

Compound,ClpP1P2,MtTrpRS
CN(C)C(=O)[C@@H]1C[C@@H]2CCN(C3CCOCC3)C[C@@H]2O1,15.24,13.7
COc1ccc(C2CCCCCN2Cc2nnc(C)o2)cc1 (stereo not given),3.181,1.419
CCCc1nc(C)cc(NCCc2nnc(N)s2)n1,3.067,-5.012
CS(=O)(=O)N(Cc1ccon1)c1ccc(F)cc1,0.9205,-3.119
Cc1ccccc1OCCCC(=O)NCc1ccnc(O)c1,-4.334,-11.36
Cc1ccccc1CC(=O)N(C)C1CCN(c2ccccn2)CC1,-3.344,4.139
O=C(c1cccnc1)N(Cc1ccncc1)C1CC1,2.015,-4.977
Cc1n[nH]c2nc(-c3ccccc3O)cc(C(=O)O)c12,-13.11,1.356
CC(O)CC(C)(C)CNC(=O)NCc1cccc(-n2cncn2)c1 (stereo not given),-10.27,0.6706
Cc1ccc2nc(CSCC(=O)Nc3nnc(C(C)C)s3)cc(=O)n2c1,-14.5,7.973
CN(Cc1nnc(-c2ccco2)o1)C1CCCN(c2cccnn2)C1 (stereo not given),33.08,-3.638
CC1(C)CC(N(Cc2cccnc2)Cc2cccc(F)c2)CC(C)(C)N1,-20.67,-
CC(=O)N1CCN(c2cnnc(N3CCCC3)c2)CC1,-7.677,-2.967
Cn1cc(NC(=O)CCc2ccsc2)ccc1=O,6.659,5.882
CN(C)CCC1CCCCN1Cc1cnn(C)c1C1CC1 (stereo not given),3.338,-4.332
Cc1nonc1OCCNc1ncnc2sc3c(c12)CCNC3,1.681,3.056
COCC1Cn2nnc(-c3cnn(C)c3)c2CN1Cc1ccco1 (stereo not given),-1.753,-1.313
CCNS(=O)(=O)c1ccc(C)c(C(=O)N(C)Cc2ccco2)c1,-4.337,-5.877
O=C(C1CCOC1)N1C[C@H]2CN(Cc3cccnc3)C(=O)[C@H]2C1 (stereo not given in full),22.72,-
CC(C)(C)n1ccc(C(=O)N2CCCC(c3ccc(C(=O)O)cc3)C2)c1 (stereo not given),1.497,-2.755
Cc1ccn(CCNC(=O)C2(C)CC(c3ccccc3)=NO2)n1 (stereo not given),-3.31,-4.92
CC(C)n1c2ccccc2c2c1cc(C(=O)N(C)C)n2S(C)(=O)=O,-7.379,-
COc1ccccc1CN1CC[C@H](c2nnc(-c3cncn3C)o2)C1,-5.027,-1.602
CCn1cc(CCC(=O)NCc2csc(C3CC3)n2)c(C)n1,2.641,0.7282
COC(=O)C1CCCCN1C(=O)c1ccc(N(C)C)cc1F (stereo not given),-1.499,-3.757
Cc1cc(NC(C)c2csc(C)n2)n2nc(C)c(C)c2n1 (stereo not given),-5.889,-3.92
O=C(C1CC1)N1CCC(c2nc(O)c3c(n2)CCN(C2CCCC2)C3)C1 (stereo not given),5.984,0
CCSc1ccc(C(=O)N2CCC3(CC2)[C@H](O)C[C@@H]3O)s1,-1.889,0.6265
N#Cc1cccc(NC2CC(=O)N(Cc3cccc(F)c3)C2)n1 (stereo not given),2.83,1.84
CCn1nc(C(=O)N2CCNCC2C(=O)Nc2ccc(C)nc2)cc1C (stereo not given),-8.713,-4.354
COC(=O)NCC(=O)NC(c1ccc(Cl)cc1)C(F)(F)F (stereo not given),6.068,-1.312
COc1cccc2c1OCC(CNC(=O)CCCN1CCOCC1)C2 (stereo not given),7.876,-3.185
O=C(NCCNc1ncccn1)N1CCN(C2CCCC2)CC1,-14.62,-4.379
COCC(=O)NCCc1ccc(Cl)s1,1.669,-3.027
CC(CC(F)(F)F)NCc1ccccc1-n1ccnc1 (stereo not given),-14.15,-0.08211
Cc1n[nH]c2c1C(c1cnn(C)c1)SCC(=O)N2 (stereo not given),2.155,0.402
O=C(C1CC1)N1C[C@H]2CCCN(S(=O)(=O)c3cccc(F)c3)[C@H]2C1,-6.034,-1.172
CC(=O)N1CCC2(CC1)[C@@H]1CN(C(=O)N(C)C)C[C@@H]1C(=O)N2C,-9.55,-7.195
Cc1cc(C(F)(F)F)nc(CNc2cc(C)nc3cc(C)nn23)n1,-9.014,-3.06
Cc1ccc(OCC(C)NC(=O)CN(C)c2ccc(C#N)cn2)cc1 (stereo not given),-7.357,2.97
N#Cc1c(F)cccc1Nc1cnn(CC(=O)N2CCOCC2)c1,14.11,4.884
CN(C)CC(=O)N1CCCC2(CCN(c3ccccc3)C2=O)C1 (stereo not given),12.53,-2.326

5 of the entries, repeated:

For CCSc1ccc(C(=O)N2CCC3(CC2)[C@H](O)C[C@@H]3O)s1 the result was ClpP1P2: -1.889%; MtTrpRS: 0.6265%.
For CN(C)CC(=O)N1CCCC2(CCN(c3ccccc3)C2=O)C1 (stereo not given) the result was ClpP1P2: 12.53%; MtTrpRS: -2.326%.
For Cc1n[nH]c2c1C(c1cnn(C)c1)SCC(=O)N2 (stereo not given) the result was ClpP1P2: 2.155%; MtTrpRS: 0.402%.
For COC(=O)C1CCCCN1C(=O)c1ccc(N(C)C)cc1F (stereo not given) the result was ClpP1P2: -1.499%; MtTrpRS: -3.757%.
For CCNS(=O)(=O)c1ccc(C)c(C(=O)N(C)Cc2ccco2)c1 the result was ClpP1P2: -4.337%; MtTrpRS: -5.877%.

Measurements from “University of Dundee, Small-Polar-MMV Screening Library” (2021), ChEMBL document CHEMBL3988442.